In the assay the target is Epitope-tagged HOIP aa 1–436 (PUB, B box and NZF domains) (UniProt Q96EP0). The assay is described as follows: co-IP; domains of epitope-tagged HOIP transfected into U2OS and NOD2 cells; immunoprecipitates probed for endogenous OTULIN and endogenous HOIP.

Amino acid sequences for entries named in this document (tags omitted). A change or cut given only in a name is not applied to a line headed by its entry. Chains listed by the source or under a name are the forms on record and can include a tag or linker. Residues count along the entry.
UniProt Q96EP0: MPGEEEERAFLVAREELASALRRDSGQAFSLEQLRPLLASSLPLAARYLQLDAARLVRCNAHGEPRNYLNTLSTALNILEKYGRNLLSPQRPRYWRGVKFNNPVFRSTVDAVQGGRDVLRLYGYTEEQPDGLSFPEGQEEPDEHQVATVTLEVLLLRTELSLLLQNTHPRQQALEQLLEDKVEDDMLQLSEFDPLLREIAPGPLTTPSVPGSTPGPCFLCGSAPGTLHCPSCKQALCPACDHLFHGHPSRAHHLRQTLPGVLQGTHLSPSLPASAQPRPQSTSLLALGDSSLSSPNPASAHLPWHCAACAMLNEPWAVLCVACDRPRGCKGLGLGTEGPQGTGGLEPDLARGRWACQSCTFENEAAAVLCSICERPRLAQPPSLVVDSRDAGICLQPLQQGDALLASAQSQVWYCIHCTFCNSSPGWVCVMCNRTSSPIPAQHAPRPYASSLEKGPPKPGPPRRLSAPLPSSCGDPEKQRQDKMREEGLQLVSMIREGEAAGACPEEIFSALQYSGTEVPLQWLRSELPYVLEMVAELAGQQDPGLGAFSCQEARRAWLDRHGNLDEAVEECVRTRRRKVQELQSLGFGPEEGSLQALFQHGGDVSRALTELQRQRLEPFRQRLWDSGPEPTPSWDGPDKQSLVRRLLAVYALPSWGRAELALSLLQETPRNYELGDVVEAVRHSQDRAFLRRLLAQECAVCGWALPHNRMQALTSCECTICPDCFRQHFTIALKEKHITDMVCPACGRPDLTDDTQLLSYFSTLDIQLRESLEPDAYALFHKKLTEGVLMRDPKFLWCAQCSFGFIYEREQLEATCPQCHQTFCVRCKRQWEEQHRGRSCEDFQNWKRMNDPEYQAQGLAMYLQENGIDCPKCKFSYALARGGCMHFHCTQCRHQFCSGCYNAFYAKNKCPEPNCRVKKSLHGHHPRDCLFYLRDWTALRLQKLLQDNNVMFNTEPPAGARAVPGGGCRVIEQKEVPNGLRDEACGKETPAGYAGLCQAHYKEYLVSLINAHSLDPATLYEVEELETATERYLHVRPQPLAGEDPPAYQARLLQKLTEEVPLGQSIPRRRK
Epitope-tagged HOIP aa 1–436 (PUB, B box and NZF domains): residues 1-436 of Q96EP0

Results are given in words; binding and its absence hold for the method and conditions named. Binding seen in cells or lysates may run through a third protein. Some binding calls cover weakened binding; strength is not graded here.

On to “endogenous HOIP (from UniProt Q96EP0 1-1072)”, for which the binding entry is listed as “binds”.

The values are drawn from paper PMC4017264, “Molecular Basis and Regulation of OTULIN-LUBAC Interaction” (Molecular Cell, 2014).
